At least one compound was matched to its structure with a doubt left.
Legend:
[1] = tested on: neovascularisation induced by sutures in the cornea; assay: Rat corneal suture model, Example 1 (blinded grading at day 6, images); assay type: in vivo; details: Hooded Lister Rats; 100 nM ALM201; dexamethasone; vs PBS control
Description: To assess the action of ALM201 (SEQ ID NO:3) on the ocular surface, the ability to halt vessel growth was measured. Vessel growth was stimulated through a well-accepted model (Shi et al., 2011) whereby a suture was placed in the central cornea of rat eyes (FIG. 1). We have shown the rat eye is similar anatomically to the human eye (Moore J E, McMullen C B, Mahon G and Adamis A P. The corneal epithelial stem cell. DNA Cell Biol. 2002; 21(5-6):443-51; incorporated herein by reference).
The experimental groups were: • Subconjunctival injection of peptide (5 rats), control group (5 rats) and positive control group (5 rats) • Intrastromal injection of peptide (5 rats), control group (5 rats) and positive control group (5 rats) • Topical application of peptide (5 rats), control group (5 rats) and positive control group (5 rats)
A suture was placed in the central cornea of one eye of each animal while the control eye remained untouched. […] Each day after suture, rats were monitored for vessel growth and photographed using a Hawk Eye Portable Digital Slit Lamp (Dioptrix, France) and inverted microscope (Nikon's E600FN; Surrey, UK). […] The fluorescence in the perfused vessels was captured using a Leica SP5 multiphoton microscope (Milton Keynes, UK). Vessel formation within tagged information file format (.tiff) files was measured by visualization with Image J (Rasband, 1997-2014). […]

[2] = tested on: retinal inflammation; assay: Mouse EAU model, histopathology (H&E) and histological score; assay type: in vivo, C57BL/6J mice; details: Dexamethasone 0.5 mg/kg; after 10 days therapy
Text: On day 24 p.i., fundus images were taken from all experimental mice using the TEFI system. Mice were then sacrificed by CO2 inhalation and eyes were carefully removed. All eyes were fixed in 2.5% (w/v) glutaraldehyde (Agar Scientific Ltd, Cambridge, UK) for 2 days at room temperature. Eyes were embedded in paraffin for standard H&E staining. Histological scores of retinal inflammation were graded using a standard scoring system described previously (Dick A. D., Cheng Y. F., Liversidge J., Forrester J. V., 1994. Immunomodulation of experimental autoimmune uveoretinitis: a model of tolerance induction with retinal antigens. Eye 8 (Pt 1), 52-59, incorporated herein by reference). Retinal sections from at least three different layers from each eye were used for histopathological analysis. The average score from three layers was used as the final pathological score of the eye.

[3] = tested on: neovascularisation and inflammation in the injured cornea; assay: ALM201 concentration titration in rat corneal suture model, clinical scoring, Example 4; assay type: in vivo; details: once a day for 6 days, dexamethasone positive control
Description: Each rat was anesthetised and two 10-0 sutures were placed intrastromally into the temporal cornea of the left eye, 1.5 mm from the limbus. The sutures were left in place for the entirety of the experiment. The right eye was kept as a no suture control but given the same treatment as the left eye. Treatment began approx. 24 hours after suture placement and continued once a day for 6 days.
Approximately 24 hours after the last treatment the eyes were imaged and clinically scored. The sutured eyes were scored based on vessel density, vessels distance to suture and inflammation. Vessel density was scored out of three, 0=no density, 1=mild, 2=moderate, 3=high. Vessels distance to suture was scored out of four, 0=no reach, 1=small distance, 2=moderate distance, 3=¾ of the way, 4=reached sutures and inflammation was scored out of three, 0=none, 1=minimal, 2=moderate, 3=severe. After clinical scoring the eyes were enucleated, tissue processed, wax embedded and cut into 5 μm sections while taking care to find the sutured area. Sections were stained with haematoxylin and eosin (H&E) to confirm suture location in each eye and adjacent slides were then used for immunohistochemistry to identify CD44+ cells and FKBPL expression as well NFκB and p-IκBα.

[4] = tested on: retinal inflammation; assay: Mouse experimental autoimmune uveitis (EAU) model, clinical score from fundus images (TEFI); details: Dexamethasone 0.5 mg/kg p.o.; paired Student's t test

Q: `C[C@@H]1C[C@H]2[C@@H]3CCC4=CC(=O)C=C[C@]4(C)[C@@]3(F)[C@@H](O)C[C@]2(C)[C@@]1(O)C(=O)CO` [Dexamethasone, reference compound] was tested. Which “Suture-induced neovascularisation in images” value [1] did it give?
A: not as marked as that viewed in the control image

Q: What about the “Infiltrating cells in retinal histology” value [2] of the same molecule?
A: A few infiltrating cells were observed

Q: What about the “Vessel density, clinical score compared to PBS control group” value ([3]; scored day 7, ALM201 1 μM) of the same molecule?
A: significant decrease

Q: And the “Inflammation scoring in comparison to PBS treated group” value ([3]; scored day 7, ALM201 10 μM)?
A: significant difference

Q: And the “Vessel distance to sutures, clinical score compared to PBS vehicle control” value ([3]; scored day 7 after suture, ALM201 1 μM)?
A: significantly different

Q: And the “Difference between day 14 p.i. and day 24 p.i. (clinical score)” value [4]?
A: No
